{
  "sequences": {"note": "Amino acid sequences for entries named in this document (tags omitted). A change or cut given only in a name is not applied to a line headed by its entry.", "UniProt P51450": "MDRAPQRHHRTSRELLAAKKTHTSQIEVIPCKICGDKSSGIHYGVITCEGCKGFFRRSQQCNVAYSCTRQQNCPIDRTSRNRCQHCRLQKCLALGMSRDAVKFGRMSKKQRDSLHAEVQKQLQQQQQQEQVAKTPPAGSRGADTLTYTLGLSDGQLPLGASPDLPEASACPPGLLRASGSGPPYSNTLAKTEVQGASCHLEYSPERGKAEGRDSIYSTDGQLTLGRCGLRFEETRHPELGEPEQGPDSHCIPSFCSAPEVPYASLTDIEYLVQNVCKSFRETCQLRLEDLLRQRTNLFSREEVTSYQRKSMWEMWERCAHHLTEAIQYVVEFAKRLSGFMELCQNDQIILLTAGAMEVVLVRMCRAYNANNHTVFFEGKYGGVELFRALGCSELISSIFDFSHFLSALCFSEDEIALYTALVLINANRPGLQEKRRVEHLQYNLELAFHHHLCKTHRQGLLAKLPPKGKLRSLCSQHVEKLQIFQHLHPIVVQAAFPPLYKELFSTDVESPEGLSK"},
  "source": "PubChem BioAssay AID2551",
  "about": "(National Center for Advancing Translational Sciences (NCATS), 2010)",
  "note": "Out of some 310,000 compounds screened, about 17,000 (5.5%) were called active. The inconclusive results got no clear call from the source; some entries with a clear call stand among them for comparison. Calls follow the shape of the dose curve; as a rule, active = well fitted inhibition curve with a large enough effect; inconclusive = small, poorly fitted or top-dose-only effect, or effect the other way; inactive = no such curve, though single readings can be large or run the other way. A potency beside an inconclusive call is a rough fit, not a confirmed value. % is scaled to controls: 0 for no effect and ±100 for the full control effect; potency is read from the fitted curve at half-maximal effect.",
  "data": [
    {"target": "Nuclear receptor ROR-gamma (Mus musculus) (UniProt P51450)", "assay": "qHTS for inhibitors of ROR gamma transcriptional activity; also: nearly all actives have a fitted effect of over 60% in size", "settings": "Drosophila S2 Gal4-RORgamma UAS-luciferase reporter, 20 h; activity change, negative = inhibition: at 53.6 µM (top of the series)", "procedure,_shortened": "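ROR gamma transcriptional activity was tracked as Gal4-UAS luciferase output in stably transfected Drosophila Schneider cells, with compound added 1 hr before 700 uM copper sulfate induction and a 20 hr ambient-temperature incubation.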", "values": [
      {"smiles": "CS(=O)(=O)N(Cc1ccccc1)c1ccc(C(=O)N2CCN(c3cccc(Cl)c3)CC2)cc1", "activity change, negative = inhibition": "inactive: 32.9%"},
      {"smiles": "CCOc1ccc(NC2c3ccccc3C(=O)N2c2ccc(Cl)cn2)cc1", "note": "(configuration not stated)", "Potency": "inconclusive: 31.6 µM [activator, single point]"},
      {"smiles": "O=C(c1ccc(COCC(F)(F)F)cc1)N1CCN(c2ccccn2)CC1", "activity change, negative = inhibition": "inactive: 19.8%"},
      {"smiles": "Cc1ccccc1S(=O)(=O)Cc1ccc(C(=O)N2CCN(c3ccc(F)cc3)CC2)o1", "Potency": "inconclusive: 8.91 µM [activator, partial curve]"},
      {"smiles": "COc1ccc(-c2cn3nc4c(nc3n2)CCCC4)cc1", "Potency": "inconclusive: 15.8 µM [inhibitor, single point]"},
      {"smiles": "O=c1[nH]c(=O)n(Cc2ccco2)c2c1C(C(F)(F)F)(C(F)(F)F)N=C(CCc1ccccc1)N2", "Potency": "inconclusive: 17.8 µM [activator, single point]"},
      {"smiles": "COc1ccc(NC(=O)c2ccccn2)cc1", "Potency": "active: 7.94 µM"},
      {"smiles": "N#C/C(=C\\c1cccc(Br)c1)C(=O)N1CCCCC1", "Potency": "active: 2.51 µM"},
      {"smiles": "C=CCOC(=O)c1ccc(-n2cncn2)nc1", "Potency": "inconclusive: 35.5 µM [inhibitor, single point]"},
      {"smiles": "Cc1ccccc1OCC(=O)Nc1ccccc1-c1ccccc1NC(=O)COc1ccccc1C", "Potency": "inconclusive: 31.6 µM [activator, single point]"},
      {"smiles": "COc1ccc(N=c2oc3c(OC)cccc3cc2C(=O)NCc2ccco2)cc1OC", "activity change, negative = inhibition": "inactive: -52.9%"},
      {"smiles": "Cc1cc(C)n(CC(=O)NCc2cc(-c3nn(C)c(=O)c4ccccc34)ccc2C)n1", "activity change, negative = inhibition": "inactive: -3.52%"},
      {"smiles": "COc1ccccc1N1CCN(C(=O)c2ccc(Cl)c(S(=O)(=O)N3CCCC3)c2)CC1", "Potency": "inconclusive: 12.6 µM [activator, partial curve]"},
      {"smiles": "COc1ccc(-c2nn(-c3ccccc3)cc2/C=N/NC(=O)c2cccc(S(=O)(=O)Nc3ccccc3OC)c2)cc1", "Potency": "active: 1.26 µM"},
      {"smiles": "CCOc1ccc(-n2cc(C(=O)N3CCCCCC3)c3cc(OC)c(OC)cc3c2=O)cc1", "Potency": "inconclusive: 17.8 µM [activator, partial curve]"},
      {"smiles": "C=CCN(CC=C)C(=S)Nc1ccc2nsnc2c1", "Potency": "active: 3.55 µM"},
      {"smiles": "Cc1cc(C(=O)Nc2c(F)cc(F)cc2Br)c(C)o1", "Potency": "inconclusive: 35.5 µM [inhibitor, single point]"},
      {"smiles": "Nc1ccc2nc(SCC(=O)Nc3ccc(N4CCOCC4)c(Cl)c3)sc2c1", "Potency": "inconclusive: 20 µM [activator, single point]"},
      {"smiles": "CC(C)c1ccc(NC(=O)NCc2ccccn2)cc1", "activity change, negative = inhibition": "inactive: 7.08%"},
      {"smiles": "CNC(=S)NCc1ccc2[nH]c3c(c2c1)CCCC3", "Potency": "active: 17.8 µM"},
      {"smiles": "Cc1cnc(C(=O)Nc2nnc(C)s2)cn1", "Potency": "inconclusive: 3.55 µM [inhibitor, partial curve, poor fit]"},
      {"smiles": "COc1cc(Br)cc2cc(C(=O)N3CCN(C(=O)c4ccco4)CC3)c(=O)oc12", "Potency": "inconclusive: 0.562 µM [activator, single point]"},
      {"smiles": "CCNC(=S)NNC(=O)CCc1nc2cc(Cl)ccc2n(Cc2ccccc2)c1=O", "Potency": "active: 6.31 µM"},
      {"smiles": "Cc1cccc(C(=O)O/N=C(\\N)c2ccccn2)c1", "Potency": "active: 12.6 µM"},
      {"smiles": "COc1cccc(CSc2nnc(-c3ccc(F)cc3)o2)c1", "Potency": "inconclusive: 14.1 µM [activator, single point]"},
      {"smiles": "O=[N+]([O-])c1cc([N+](=O)[O-])c(Oc2c(F)cccc2F)cc1NN1CCCCC1", "activity change, negative = inhibition": "inactive: -11.5%"},
      {"smiles": "Cc1ccc(NC(=S)NC(=O)CC2CC(C)(C)OC2=O)cc1", "note": "(configuration not stated)", "Potency": "inconclusive: 35.5 µM [inhibitor, single point]"},
      {"smiles": "O=C(Nc1cnn(Cc2c(Cl)cccc2Cl)c1)c1ccc([N+](=O)[O-])cc1", "Potency": "inconclusive: 35.5 µM [inhibitor, single point]"},
      {"smiles": "O=C(NCCC(=O)N1CCCCC1)c1ccc(Br)cc1", "Potency": "inconclusive: 6.31 µM [activator, single point]"},
      {"smiles": "Cc1nc2cnc(N(C)C)nc2n(Cc2cccs2)c1=O", "activity change, negative = inhibition": "inactive: 0.254%"},
      {"smiles": "Cc1cc(C)c(C(CC(=O)c2cccs2)C(C#N)C#N)c(C)c1", "note": "(configuration not stated)", "Potency": "inconclusive: 22.4 µM [inhibitor, single point]"},
      {"smiles": "O=C(CN1CCCCC1)NC(=O)NC1CCCC1", "activity change, negative = inhibition": "inactive: -9.44%"},
      {"smiles": "Cc1cccc(C)c1NC(=S)NC(=O)c1ccccc1F", "Potency": "active: 4.47 µM"},
      {"smiles": "Cc1ccc(-c2csc3ncnc(NCCN4CCOCC4)c23)cc1", "activity change, negative = inhibition": "inactive: 16.1%"},
      {"smiles": "CCCCCC(O)CCc1n[nH]c(=S)n1-c1ccccc1", "note": "(configuration not stated)", "Potency": "active: 6.31 µM"},
      {"smiles": "CC1=C(C)C(=O)C(N2CCOCC2)=CC1=O", "Potency": "active: 22.4 µM"},
      {"smiles": "COc1cc(/C=N/n2c(C)n[nH]c2=S)ccc1OCc1ccccc1", "Potency": "active: 6.31 µM"}
    ]}
  ]
}
